Experimental data reported in paper PMC4249601.
These are yes or no findings as the source states them, for the method shown. Binding seen in cells or lysates may run through a third protein. These calls come from enrichment with a bait or labelling near it, and not all partners need be listed. Values belong to the molecule of their own block, whether it stands above or below them.

The chains behind the UniProt entries cited, without tags or fusion partners.
UniProt P07737: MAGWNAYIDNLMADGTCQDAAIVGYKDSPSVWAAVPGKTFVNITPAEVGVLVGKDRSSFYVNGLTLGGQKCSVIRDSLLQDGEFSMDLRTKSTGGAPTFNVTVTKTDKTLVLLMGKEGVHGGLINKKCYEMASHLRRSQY
UniProt O75874: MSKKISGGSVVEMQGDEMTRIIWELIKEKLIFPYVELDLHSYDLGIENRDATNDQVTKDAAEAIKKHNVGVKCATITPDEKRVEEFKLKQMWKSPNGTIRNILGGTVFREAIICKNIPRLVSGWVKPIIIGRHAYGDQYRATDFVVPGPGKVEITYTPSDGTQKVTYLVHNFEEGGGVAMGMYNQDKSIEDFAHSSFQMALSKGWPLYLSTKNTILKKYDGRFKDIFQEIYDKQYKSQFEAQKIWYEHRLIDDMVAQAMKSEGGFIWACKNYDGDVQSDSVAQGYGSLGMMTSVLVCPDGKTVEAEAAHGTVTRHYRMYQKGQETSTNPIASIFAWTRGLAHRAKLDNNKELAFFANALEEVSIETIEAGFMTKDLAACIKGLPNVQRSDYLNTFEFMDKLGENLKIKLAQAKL

Molecular target: FLAG-Pfn1 (Profilin1) (UniProt P07737)
Assay: affinity purification with mass spectrometry; whole cell extracts of HEK-293T cells transiently expressing FLAG-Pfn1; anti-FLAG antibody on agarose beads; complexes resolved on SDS-PAGE, silver stained, bands retrieved for mass spectrometry

binding: binds
Molecule: IDH1 (from UniProt O75874 1-414)

binding: binds
B1: GOT2 (protein, UniProt P00505 30-430)
chain: SSWWTHVEMGPPDPILGVTEAFKRDTNSKKMNLGVGAYRDDNGKPYVLPSVRKAEAQIAAKNLDKEYLPIGGLAEFCKASAELALGENSEVLKSGRFVTVQTISGTGALRIGASFLQRFFKFSRDVFLPKPTWGNHTPIFRDAGMQLQGYRYYDPKTCGFDFTGAVEDISKIPEQSVLLLHACAHNPTGVDPRPEQWKEIATVVKKRNLFAFFDMAYQGFASGDGDKDAWAVRHFIEQGINVCLCQSYAKNMGLYGERVGAFTMVCKDADEAKRVESQLKILIRPMYSNPPLNGARIAAAILNTPDLRKQWLQEVKVMADRIIGMRTQLVSNLKKEGSTHNWQHITDQIGMFCFTGLKPEQVERLIKEFSIYMTKDGRISVAGVTSSNVGYLAHAIHQVTK
